Data taken from PubChem BioAssay AID1053133, deposited by Broad Institute (2014).

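Plate-reader measure of the Venus reporter marking one vaccinia stage in infected cells (the cell line is not named here); read time unknown. The test concentration is not given here. Percent change in Venus reporter signal; lower (more negative) values mean stronger inhibition of that viral stage.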

Values are in %. How 0% and 100% were set is not given here. Common to all entries: measured here: Venus reporter, other viral stage. Part of the compounds only, not a random draw; the main read-out is not listed here.

{"structure": "CC(C)NC(=O)Nc1ccc2c(c1)C(=O)N([C@H](C)CO)C[C@H](C)[C@@H](CN(C)Cc1ccc(Cl)c(Cl)c1)OCCCC[C@H](C)O2", "activity change (Venus) (%)": "-66.96"}
{"structure": "COc1cccc(-c2cnc3c(c2)C(=O)N([C@H](C)CO)C[C@H](C)[C@H](CN(C)Cc2cccc(C)c2)O3)c1", "activity change (Venus) (%)": "-40.71"}
{"structure": "COc1ccccc1S(=O)(=O)N1CC[C@@H]2[C@@H](CO)Nc3ccc(-c4ccc(C#N)cc4)cc3[C@@H]21", "activity change (Venus) (%)": "-41.17"}
{"structure": "COc1ccc(NC(=O)N(C)C[C@@H]2Oc3ncc(-c4cccc(C(F)(F)F)c4)cc3C(=O)N([C@H](C)CO)C[C@@H]2C)cc1", "activity change (Venus) (%)": "-40.06"}
{"structure": "COc1ccc(S(=O)(=O)N[C@H]2CC[C@H](CCn3cc(-c4ccccc4F)nn3)O[C@@H]2CO)cc1", "activity change (Venus) (%)": "-27.74"}
{"structure": "C[C@H]1CCCCO[C@H](CN(C)Cc2ccccc2)[C@@H](C)CN([C@@H](C)CO)C(=O)c2cc(NS(=O)(=O)c3ccccc3)ccc2O1", "activity change (Venus) (%)": "-31.8"}
{"structure": "Cc1cccc(S(=O)(=O)N2CCCCN3[C@@H](CO)[C@@H](c4ccc(-c5ccccc5)cc4)[C@@H]3C2)c1", "activity change (Venus) (%)": "-40.27"}
{"structure": "CO[C@@H](CN(C)S(=O)(=O)c1ccc(C)cc1)[C@@H](C)CN([C@@H](C)CO)S(=O)(=O)c1cccc(Cl)c1", "activity change (Venus) (%)": "-44.09"}
{"structure": "COc1cccc(NC(=O)N(C)C[C@@H]2Oc3cc(/C=C/c4ccccc4)ccc3S(=O)(=O)N([C@@H](C)CO)C[C@H]2C)c1", "activity change (Venus) (%)": "-34.55"}
{"structure": "Cc1cccc(CN(C)C[C@@H]2Oc3ncc(-c4ccc(F)cc4)cc3C(=O)N([C@H](C)CO)C[C@@H]2C)c1", "activity change (Venus) (%)": "-33.15"}
{"structure": "COc1ccc2c3c([nH]c2c1)[C@@H](CO)N(C(=O)Nc1ccc(F)cc1)CC31CCN(S(=O)(=O)c2cccc(F)c2)CC1", "activity change (Venus) (%)": "-64.3"}
{"structure": "O=C(C1CCCC1)N1C[C@@H]2N[C@H](C1)C2c1ccc(-c2ccncc2)cc1", "stereo": "stereo partly specified", "activity change (Venus) (%)": "-76.7"}
{"structure": "CN(C)CC(=O)Nc1ccc2c(c1)[C@@H]1C[C@@H](CC(=O)NCc3ccc(-c4ccccc4)cc3)O[C@H](CO)[C@@H]1O2", "activity change (Venus) (%)": "-34.25"}
{"structure": "COc1ccccc1NC(=O)N1CC[C@@H]2[C@H]1c1cc(-c3cccc(F)c3)ccc1N(C)[C@H]2CO", "activity change (Venus) (%)": "-40.68"}
{"structure": "COc1ccc(NC(=O)N2CCCCN3[C@H](C2)[C@H](c2ccc(-c4ccccc4F)cc2)[C@@H]3CO)cc1", "activity change (Venus) (%)": "-43.94"}
{"structure": "C/C=C/c1ccc([C@@H]2[C@@H](CO)N3C(=O)CN(C(=O)Nc4cccc(OC)c4)C[C@@H]23)cc1", "activity change (Venus) (%)": "-37.79"}
{"structure": "COc1ccc(C#Cc2ccc([C@@H]3[C@@H](CO)N4CCCCN(Cc5ccncc5)C[C@H]34)cc2)cc1", "activity change (Venus) (%)": "-27.6"}
{"structure": "COc1ccc(S(=O)(=O)N(C)C[C@H]2OCCCC[C@H](C)Oc3ccc(NS(=O)(=O)c4ccc(F)cc4)cc3C(=O)N([C@@H](C)CO)C[C@@H]2C)cc1", "activity change (Venus) (%)": "-43.71"}
{"structure": "Cc1ccc(S(=O)(=O)N2C[C@@H]3N[C@H](C2)C3c2ccc(-c3cccc(C#N)c3)cc2)cc1", "stereo": "stereo partly specified", "activity change (Venus) (%)": "-50.24"}
{"structure": "C[C@@H]1CN([C@H](C)CO)C(=O)c2cc(NC(=O)NC3CCCCC3)ccc2O[C@@H](C)CCCCO[C@H]1CN(C)Cc1ccccc1", "activity change (Venus) (%)": "-62.37"}
{"structure": "C[C@@H]1CN([C@@H](C)CO)S(=O)(=O)c2ccc(-c3ccccc3)cc2O[C@H]1CN(C)Cc1ccccn1", "activity change (Venus) (%)": "-48.68"}

The first 2 entries again:

{"structure": "CC(C)NC(=O)Nc1ccc2c(c1)C(=O)N([C@H](C)CO)C[C@H](C)[C@@H](CN(C)Cc1ccc(Cl)c(Cl)c1)OCCCC[C@H](C)O2", "activity change (Venus) (%)": "-66.96"}
{"structure": "COc1cccc(-c2cnc3c(c2)C(=O)N([C@H](C)CO)C[C@H](C)[C@H](CN(C)Cc2cccc(C)c2)O3)c1", "activity change (Venus) (%)": "-40.71"}